Results are given in words; binding and its absence hold for the method and conditions named. Some results given as binding are weak or reduced against the parent protein; the word gives no strength.

This experiment has as its target T1, E. coli ArfA (E. coli) (UniProt P36675).
T1 sequence: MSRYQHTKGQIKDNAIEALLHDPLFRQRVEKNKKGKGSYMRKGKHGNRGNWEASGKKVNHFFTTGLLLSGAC
In words: cryo-EM structure; E. coli 70S ribosomes incubated with nonstop mRNA (6 uM), tRNAfMet, ArfA and RF2^m (12 uM each) in buffer A (20 mM Hepes-KOH pH 7.5, 15 mM magnesium acetate, 150 mM potassium acetate, 4 mM beta-mercaptoethanol, 2 mM spermidine, 0.05 mM spermine), 30 min at 37 °C; single-particle cryoEM; both purified.

B1: E. coli RF2 with GGQ motif methylated (RF2^m) (protein, UniProt P07012 1-365)
chain: MFEINPVNNRIQDLTERSDVLRGYLDYDAKKERLEEVNAELEQPDVWNEPERAQALGKERSSLEAVVDTLDQMKQGLEDVSGLLELAVEADDEETFNEAVAELDALEEKLAQLEFRRMFSGEYDSADCYLDIQAGSGGTEAQDWASMLERMYLRWAESRGFKTEIIEESEGEVAGIKSVTIKISGDYAYGWLRTETGVHRLVRKSPFDSGGRRHTSFSSAFVYPEVDDDIDIEINPADLRIDVYRTSGAGGQHVNRTESAVRITHIPTGIVTQCQNDRSQHKNKDQAMKQMKAKLYELEMQKKNAEKQAMEDNKSDIGWGSQIRSYVLDDSRIKDLRTGVETRNTQAVLDGSLDQFIEASLKAGL
modifications: N5-methylglutamine at Q252 (the glutamine of the GGQ motif)
Turning to B1, the binding result is “binds”.

Source of the values: article PMC5799190.
